## Library screen at single concentrations

Data taken from ChEMBL document CHEMBL3988442, “University of Dundee, Small-Polar-MMV Screening Library” (2021).

Mtb glucose medium: 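Whole-cell growth test on Mycobacterium tuberculosis, read after 3 days in glucose-containing 7H9 medium; the read-out is not stated. Compounds at 50 µM. Higher reads as more growth inhibition (inferred: compounds with an IC50 in retests scored well above the rest). Of about 69,000 compounds tested this way, about 760 (1.1%) reached 50% or more in at least one test.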
Mtb cholesterol medium: 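Growth of Mycobacterium tuberculosis over 4 days (cholesterol / DPPC medium with tyloxapol); the read-out is not stated. Concentration: 50 µM. Higher reads as more growth inhibition (inferred: compounds with an IC50 in retests scored well above the rest). Size under these conditions: about 69,000 compounds, about 370 of them at 50% or above in at least one test.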

Results are given as percent effect.
The record does not define 0% and 100%; most values in the screen are far below 50% and negative numbers occur (in some assays of this library far below -100).
Compounds were drawn at random from those tested, without regard to their results.
Two or more numbers in one place are separate tests of the same structure; such repeats can differ widely.

| # | SMILES | Mtb glucose medium | Mtb cholesterol medium |
|---|---|---|---|
| 1 | `Cc1cc(NCCNS(=O)(=O)c2cccc(Cl)c2)nc(C)n1` | -6.736% & -0.5715% | -5.96% |
| 2 | `CN(C)c1cc2c(nn1)CCN(C(=O)Cc1ccc3c(c1)CCC3)C2` | -9.174% | 0.1868% |
| 3 | `COc1ccc(Cl)cc1-c1cc(NC(=O)C2CNC(=O)N2)[nH]n1` (stereo not drawn) | 1.086% & 4.889% | 7.76% & -5.593% |
| 4 | `COc1ncc(C2CC(=O)NCc3nc4ccccn4c32)cn1` (stereo not drawn) | -22.83% | -24.35% |
| 5 | `CC(Cc1cn(CCc2nc(N)cc(O)n2)nn1)c1ccccc1` (stereo not drawn) | -9.867% & 9.086% | -11.75% |
| 6 | `[H][C@@]12CNC[C@]1([H])CN(C(=O)c1ccc(F)c(F)c1)C2` | 27.97% | 11.11% |
| 7 | `CC[C@H](CO)NC(=O)c1coc(COc2ccccc2F)n1` | -28.9% | -15.39% |
| 8 | `CC(C)C[C@@H]1N[C@H](C(=O)NC(C)C)Cc2c[nH]c3cccc1c23` | 12.42% & 5.162% | 1.057% |
| 9 | `CCCSCC(=O)N1CCN(c2ccc(C)cc2)CC1C` (stereo not drawn) | 28.73% & 12.72% | 13.07% |
| 10 | `O=S(=O)(NCc1ccc(S(=O)(=O)N2CCCC2)s1)c1ccc(Cl)cc1` | -17.82% | -7.337% |
| 11 | `CC(NC(=O)Cn1ccc(=O)n(C)c1=O)c1cc(F)ccc1F` (stereo not drawn) | -13.71% | -16.32% |
| 12 | `COc1ccc(F)cc1C(=O)N(C)[C@@H]1CC[C@@H](O)[C@@H]1O` | -1.667% | -8.783% |
| 13 | `CC(C)c1ncc2c(n1)CN(CC(=O)Nc1ccncc1)CC2` | -14.52% | 0.7061% |
| 14 | `c1cnc(C2CCCN(Cc3ccsc3)C2)cn1` (stereo not drawn) | -11.6% | -4.288% & 1.414% |
| 15 | `NC(=O)N1CCC2(CC1)CN(c1ccsc1)C(=O)CO2` | -23.39% | -25.67% |
| 16 | `O=C(O)C(F)(F)F.O=C(O)C(F)(F)F.O=C(O)C(F)(F)F.[H][C@@]12CN(Cc3ccncc3)C[C@@]1([H])N(Cc1ccncc1)C(=O)CO2` | -16.45% | 8.379% |
| 17 | `CN1CCN(C2CCN(c3ccnc(-c4ccccc4)n3)CC2)C1=O` | 12.98% | 18.42% |
| 18 | `CC(NCC1CCN(CCO)CC1)c1ccc(OC(F)(F)F)cc1` (stereo not drawn) | 45.4% | 31.57% |
| 19 | `CCOc1ccc(C(=O)Nc2c(C)nc3ccc(Cl)cn3c2=O)cc1` | -6.003% | -8.654% |
| 20 | `[H][C@@]12CC(=O)N(CC)[C@@]1([H])CCN2S(=O)(=O)c1cccc(C)c1` | -29.62% | -22.93% |
| 21 | `CCc1cc(C(=O)N[C@H]2CN(CCS(C)(=O)=O)C[C@@H]2C2CC2)[nH]n1` | 10.1% & 8.263% | -1.07% |
| 22 | `Cn1ccc(C(=O)N2CCCC(c3cc4cccnc4c(O)n3)C2)n1` (stereo not drawn) | 6.151% | 4.11% |
| 23 | `CC(C)CSCCN1CCCN(S(C)(=O)=O)CC1` | -33.95% | 1.085% & -34.81% |
| 24 | `CC(C)CCN1CCc2c(C(=O)N(C)Cc3ccccn3)nn(C)c2C1.O=C(O)C(F)(F)F.O=C(O)C(F)(F)F.O=C(O)C(F)(F)F` | 6.334% & -5.288% | -3.271% |
| 25 | `O=C(NCC1CC1)c1n[nH]c2c1CNCC2.O=C(O)C(F)(F)F.O=C(O)C(F)(F)F` | -5.231% | -2.781% |
| 26 | `Cc1cc(Cl)c2c(c1)C1(NC(=O)c3cccnc3N1)C(=O)N2` (stereo not drawn) | 13.94% | 24.1% |
| 27 | `Nc1nccc(C2CCCN(CC3CC3)C2)n1` (stereo not drawn) | -1.385% | 21.53% |
| 28 | `O=C(Cc1cccs1)NCC1Cn2nnc(-c3ccoc3)c2CO1` (stereo not drawn) | -8.803% & -14.32% | -3.764% |
| 29 | `COC(C)(C)C(=O)N1Cc2cnc(C(C)(C)C)nc2C1` | -0.8986% & -3.552% | -12.04% & -0.5786% |
| 30 | `Cc1ccc([C@@H]2CN(S(=O)(=O)N3CCC(C)CC3)C[C@H]2N(C)C)cc1` | 7.988% & 15.65% | 10.98% |
| 31 | `CC(C)c1nc(C2CCCN(C(=O)CCn3ccccc3=O)C2)no1` (stereo not drawn) | -2.428% & -46.12% | -8.267% |
| 32 | `N#Cc1cnc(NCCCN2C(=O)COc3ccccc32)c(Cl)c1` | 5.427% & 10.4% | 6.362% |
| 33 | `Nc1nc2c(c(N3CCCC(c4nnc5ccccn45)C3)n1)CCNC2` (stereo not drawn) | 5.206% | -24.32% |
| 34 | `Cc1cc(C)n(CC2CN(Cc3ccc4c(c3)OCCO4)CCO2)n1` (stereo not drawn) | 3.411% | 19.95% |
| 35 | `Cc1cnn(CC2CN(Cc3nc4cccnc4[nH]3)CCO2)c1` (stereo not drawn) | -21.53% | -4.803% |
| 36 | `Cc1ccc(C)c(C(C(=O)O)N2CCCN(Cc3ccccn3)CC2)c1` (stereo not drawn) | -31.3% | -23.37% |
| 37 | `CCn1c(C2CCN(C(=O)COCC(F)(F)C(F)F)CC2)n[nH]c1=O` | -42.82% | -22.37% |
| 38 | `CCn1ncc2c1CCCC2NCC1=Cc2ccccc2OC1` (stereo not drawn) | 26.49% | -1.492% |
| 39 | `COc1ccc(C(=O)NCCCn2ccnc2)c(OC)n1` | 7.134% | -11.97% |
| 40 | `COCc1ncc(CN2CC[C@@](O)(COC)C(C)(C)C2)cn1` | -0.1504% | 9.895% |
| 41 | `Cc1cc(N2CCCN(C(=O)Cc3csc(C)n3)CC2)ccn1` | -14.25% | -13.23% |
| 42 | `Cn1ccnc1C(=O)N1CCOC(Cc2ccc(Cl)cc2)C1` (stereo not drawn) | 27.04% | 9.659% |
| 43 | `CN1CCCC(c2cccc(Cc3ccccc3Cl)n2)C1` (stereo not drawn) | 37.21% | 18.26% |
| 44 | `CCC(c1nc(CC(C)C)nn1-c1ccccn1)n1cccn1` (stereo not drawn) | 15.26% | 38.34% |
| 45 | `Cc1nc(C)n(C2CCCN(C(=O)CCn3cncn3)C2)n1` (stereo not drawn) | 13.66% | 0.8084% |
| 46 | `COCCN1CC(O)CN(C(=O)c2cccc(C(F)(F)F)c2)CC1=O` (stereo not drawn) | -13.61% | -21.95% |
| 47 | `CC(C)c1nn(C)c(N(C)C)c1CNCc1ccc2c(c1)OCO2` | 6.821% | -5.414% |
| 48 | `COc1ccccc1OCc1cc(C(=O)N2CC(O)C2)n[nH]1` | 29.71% & -6.049% | 4.376% |
| 49 | `O=C(Cc1ccc(F)cc1)NS(=O)(=O)c1ccc(F)c(F)c1` | -1.47% & 2.537% | -15.74% |
| 50 | `c1cc(-c2ccn(CCN3CCCC3)n2)cc(-c2nccs2)c1` | 45.93% & 45.42% | 44.55% |
| 51 | `CC(c1cn2ncsc2n1)N1Cc2ncccc2C1=O` (stereo not drawn) | 9.616% | -15.43% |
| 52 | `CSc1ccsc1C(=O)NC(C)c1ccc2c(c1)CCC(=O)N2` (stereo not drawn) | -4.063% | 8.094% |
| 53 | `[H][C@@]12CN(S(=O)(=O)c3ccccc3)C[C@]1([H])OCC(=O)N2CCOC` | -0.04768% & 11.81% | 16.46% |
| 54 | `COc1nc(C)c(C(=O)N2CCN(c3ncccc3C)CC2)s1` | 9.121% | 6.966% |
| 55 | `CSCCC1c2nc[nH]c2CCN1Cc1ccccc1C#N` (stereo not drawn) | -14.61% | -0.8527% |
| 56 | `CC(C)=CCN1CCN(Cc2nccn2C)C(C)C1` (stereo not drawn) | -24.93% | -5.729% |
| 57 | `CN1CC(=O)N(c2cccc(F)c2)CC12CCN(Cc1ccncc1)C2.O=C(O)C(F)(F)F.O=C(O)C(F)(F)F` (stereo not drawn) | 13.22% & -2.564% | -9.175% & -6.415% |
| 58 | `Cc1cccc(C(C)(C)CNC(=O)CCSc2nnnn2C)c1` | 0.775% & -19.98% | -20.8% |
| 59 | `Cc1nn(C)cc1C(=O)Nc1cccc(CN2CCC(CO)CC2)c1` | -50.08% & -19.35% | -13.98% |

Some entries from above, unchanged:

Result for Cc1cc(N2CCCN(C(=O)Cc3csc(C)n3)CC2)ccn1 was Mtb glucose medium: -14.25%; Mtb cholesterol medium: -13.23%.
Result for c1cnc(C2CCCN(Cc3ccsc3)C2)cn1 (stereo not drawn) was Mtb glucose medium: -11.6%; Mtb cholesterol medium: -4.288% & 1.414%.
Result for COC(C)(C)C(=O)N1Cc2cnc(C(C)(C)C)nc2C1 was Mtb glucose medium: -0.8986% & -3.552%; Mtb cholesterol medium: -12.04% & -0.5786%.
Result for N#Cc1cnc(NCCCN2C(=O)COc3ccccc32)c(Cl)c1 was Mtb glucose medium: 5.427% & 10.4%; Mtb cholesterol medium: 6.362%.
Result for CC(c1cn2ncsc2n1)N1Cc2ncccc2C1=O (stereo not drawn) was Mtb glucose medium: 9.616%; Mtb cholesterol medium: -15.43%.
Result for CC(NC(=O)Cn1ccc(=O)n(C)c1=O)c1cc(F)ccc1F (stereo not drawn) was Mtb glucose medium: -13.71%; Mtb cholesterol medium: -16.32%.